From article PMC8500422
No constants are given. Whether binding was seen depends on the method and setting. Binding seen in cells or lysates may run through a third protein. Sequences can lack the tags named with a protein.

Experiments:
[1] = target: T1, EGFP-fused BROMI(1–1,190) (human) (UniProt Q96NH3); assay: co-IP; visible immunoprecipitation (VIP) assay: lysates of HEK293T cells coexpressing EGFP-fused and mChe-fused proteins (HMDEKN buffer: 10 mM HEPES pH 7.4, 5 mM MgSO4, 1 mM DTT, 0.5 mM EDTA, 25 mM KCl, 0.05% NP-40), precipitated with GST-tagged anti-GFP Nb on glutathione–Sepharose 4B beads, 1 h at 4°C; red fluorescence on the washed beads observed under a microscope
T1 sequence: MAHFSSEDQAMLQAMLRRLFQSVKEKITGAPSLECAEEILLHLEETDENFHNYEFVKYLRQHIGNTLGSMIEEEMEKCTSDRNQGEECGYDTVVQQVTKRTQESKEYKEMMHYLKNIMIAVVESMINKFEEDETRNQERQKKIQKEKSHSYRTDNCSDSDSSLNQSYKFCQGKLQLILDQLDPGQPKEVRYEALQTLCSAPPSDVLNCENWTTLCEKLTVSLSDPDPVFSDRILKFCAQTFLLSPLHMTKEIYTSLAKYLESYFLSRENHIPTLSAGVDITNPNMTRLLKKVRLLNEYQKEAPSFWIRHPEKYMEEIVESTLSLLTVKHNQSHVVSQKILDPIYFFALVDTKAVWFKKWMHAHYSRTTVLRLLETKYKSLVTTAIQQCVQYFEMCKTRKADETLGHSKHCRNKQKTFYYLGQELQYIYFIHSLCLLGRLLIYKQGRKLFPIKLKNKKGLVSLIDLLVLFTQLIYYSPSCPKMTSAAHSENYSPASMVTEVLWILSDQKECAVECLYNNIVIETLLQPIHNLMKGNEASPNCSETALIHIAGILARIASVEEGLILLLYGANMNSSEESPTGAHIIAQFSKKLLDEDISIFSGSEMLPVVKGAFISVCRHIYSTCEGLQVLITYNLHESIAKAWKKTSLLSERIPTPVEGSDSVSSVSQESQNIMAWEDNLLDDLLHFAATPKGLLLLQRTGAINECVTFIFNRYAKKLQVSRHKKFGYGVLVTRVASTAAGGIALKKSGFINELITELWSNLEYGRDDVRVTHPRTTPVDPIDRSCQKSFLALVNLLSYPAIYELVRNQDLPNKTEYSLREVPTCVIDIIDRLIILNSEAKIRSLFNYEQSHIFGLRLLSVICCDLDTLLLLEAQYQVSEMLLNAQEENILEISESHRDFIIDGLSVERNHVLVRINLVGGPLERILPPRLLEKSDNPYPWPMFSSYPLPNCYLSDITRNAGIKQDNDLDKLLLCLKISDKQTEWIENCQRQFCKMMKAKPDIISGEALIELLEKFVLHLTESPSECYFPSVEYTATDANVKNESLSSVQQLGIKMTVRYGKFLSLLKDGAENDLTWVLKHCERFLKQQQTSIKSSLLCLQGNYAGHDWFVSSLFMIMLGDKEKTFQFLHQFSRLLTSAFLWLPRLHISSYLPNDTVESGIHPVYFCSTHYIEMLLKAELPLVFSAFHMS

[2] = target: T2, EGFP-fused BROMI(1–1,101) (human) (UniProt Q96NH3); assay: as above
T2 sequence: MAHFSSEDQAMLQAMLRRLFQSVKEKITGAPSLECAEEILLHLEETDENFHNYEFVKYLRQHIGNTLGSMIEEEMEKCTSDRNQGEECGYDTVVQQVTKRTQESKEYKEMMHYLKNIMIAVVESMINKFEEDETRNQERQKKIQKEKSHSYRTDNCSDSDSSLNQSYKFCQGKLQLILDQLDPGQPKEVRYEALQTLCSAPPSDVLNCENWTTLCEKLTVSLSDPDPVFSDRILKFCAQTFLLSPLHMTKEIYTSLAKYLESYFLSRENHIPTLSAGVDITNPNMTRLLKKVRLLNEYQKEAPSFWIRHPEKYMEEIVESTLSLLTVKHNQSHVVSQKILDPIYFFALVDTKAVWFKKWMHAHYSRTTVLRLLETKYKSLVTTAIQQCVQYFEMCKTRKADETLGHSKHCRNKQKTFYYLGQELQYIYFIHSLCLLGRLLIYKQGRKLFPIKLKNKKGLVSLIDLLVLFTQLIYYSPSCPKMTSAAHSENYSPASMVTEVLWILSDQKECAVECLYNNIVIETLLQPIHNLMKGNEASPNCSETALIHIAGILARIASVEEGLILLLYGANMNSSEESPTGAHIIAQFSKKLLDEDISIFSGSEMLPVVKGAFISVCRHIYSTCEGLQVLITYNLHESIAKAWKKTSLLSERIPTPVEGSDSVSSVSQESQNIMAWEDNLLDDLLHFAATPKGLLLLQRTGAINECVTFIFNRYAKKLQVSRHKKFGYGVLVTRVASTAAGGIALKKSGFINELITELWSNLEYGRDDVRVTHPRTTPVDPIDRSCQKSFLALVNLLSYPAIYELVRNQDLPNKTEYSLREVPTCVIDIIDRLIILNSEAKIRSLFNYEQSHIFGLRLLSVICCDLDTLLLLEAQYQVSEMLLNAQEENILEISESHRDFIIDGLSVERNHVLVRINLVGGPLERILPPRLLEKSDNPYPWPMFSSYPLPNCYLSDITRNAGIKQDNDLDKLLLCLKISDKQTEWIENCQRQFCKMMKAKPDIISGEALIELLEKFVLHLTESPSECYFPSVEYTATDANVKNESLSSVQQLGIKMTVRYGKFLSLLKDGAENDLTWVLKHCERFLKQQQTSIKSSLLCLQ

- binding [1]: no binding
- binding [2]: no binding
Substance: CCRK-mChe (from UniProt Q8IZL9-1 1-346)
